The assay has as its target T1, myc-tagged P0WT (P0myc) (mouse) (UniProt P27573).
T1 sequence: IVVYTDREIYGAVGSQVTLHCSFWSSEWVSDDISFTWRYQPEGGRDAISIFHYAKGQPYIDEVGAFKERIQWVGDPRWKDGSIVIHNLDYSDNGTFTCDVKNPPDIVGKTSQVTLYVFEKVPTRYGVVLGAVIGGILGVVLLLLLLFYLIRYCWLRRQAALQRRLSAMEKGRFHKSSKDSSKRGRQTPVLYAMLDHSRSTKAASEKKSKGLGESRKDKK
The assay can be described thus: co-IP.

These are yes or no findings as the source states them, for the method shown. Binding seen in cells or lysates may run through a third protein. Some results given as binding are weak or reduced against the parent protein; the word gives no strength. Tags and fused reporters may be left off the sequences shown.

B1: P0Q215X (truncated Protein Zero encoded by the Mpz Q215X nonsense mutation) (domain or fragment, UniProt P27573 30-214)
chain: IVVYTDREIYGAVGSQVTLHCSFWSSEWVSDDISFTWRYQPEGGRDAISIFHYAKGQPYIDEVGAFKERIQWVGDPRWKDGSIVIHNLDYSDNGTFTCDVKNPPDIVGKTSQVTLYVFEKVPTRYGVVLGAVIGGILGVVLLLLLLFYLIRYCWLRRQAALQRRLSAMEKGRFHKSSKDSSKRGR
For B1, the binding result is listed as “binds”.

Source of the values: paper doi:10.1101/352112.
